Holding throughout (test): two-hybrid
Experiment [1] deals with T1, PP2A scaffolding subunit A2, yeast two-hybrid fusion (Arabidopsis thaliana) (UniProt Q38950).
T1 sequence: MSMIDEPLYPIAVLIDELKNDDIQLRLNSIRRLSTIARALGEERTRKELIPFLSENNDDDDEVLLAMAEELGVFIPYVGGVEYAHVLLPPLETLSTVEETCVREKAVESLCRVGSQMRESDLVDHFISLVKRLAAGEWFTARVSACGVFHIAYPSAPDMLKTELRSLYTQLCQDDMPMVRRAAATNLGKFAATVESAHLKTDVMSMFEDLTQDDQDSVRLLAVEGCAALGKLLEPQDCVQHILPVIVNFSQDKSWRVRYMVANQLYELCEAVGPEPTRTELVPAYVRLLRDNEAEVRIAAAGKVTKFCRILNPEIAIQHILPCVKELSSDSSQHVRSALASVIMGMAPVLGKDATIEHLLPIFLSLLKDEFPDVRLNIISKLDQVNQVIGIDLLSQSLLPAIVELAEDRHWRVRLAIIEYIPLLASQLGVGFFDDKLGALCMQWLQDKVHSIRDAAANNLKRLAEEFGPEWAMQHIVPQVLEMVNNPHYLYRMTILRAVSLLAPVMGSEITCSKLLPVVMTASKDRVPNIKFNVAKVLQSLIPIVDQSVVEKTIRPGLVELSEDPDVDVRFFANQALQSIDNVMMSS

Amino acid sequences for entries named in this document (tags omitted).
UniProt P48578: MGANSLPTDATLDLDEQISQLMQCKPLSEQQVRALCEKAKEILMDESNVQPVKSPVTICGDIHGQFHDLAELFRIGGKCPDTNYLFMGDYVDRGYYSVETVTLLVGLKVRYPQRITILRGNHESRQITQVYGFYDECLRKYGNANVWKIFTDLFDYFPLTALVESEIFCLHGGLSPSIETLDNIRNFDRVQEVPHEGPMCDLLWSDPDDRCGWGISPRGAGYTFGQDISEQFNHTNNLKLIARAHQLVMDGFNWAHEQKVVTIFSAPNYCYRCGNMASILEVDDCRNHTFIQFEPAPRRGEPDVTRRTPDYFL

Experiment [2] addresses T2, PP2A regulatory subunit Bβ S460A (phospho-dead), yeast two-hybrid fusion (Arabidopsis thaliana) (UniProt Q39247).
T2 sequence: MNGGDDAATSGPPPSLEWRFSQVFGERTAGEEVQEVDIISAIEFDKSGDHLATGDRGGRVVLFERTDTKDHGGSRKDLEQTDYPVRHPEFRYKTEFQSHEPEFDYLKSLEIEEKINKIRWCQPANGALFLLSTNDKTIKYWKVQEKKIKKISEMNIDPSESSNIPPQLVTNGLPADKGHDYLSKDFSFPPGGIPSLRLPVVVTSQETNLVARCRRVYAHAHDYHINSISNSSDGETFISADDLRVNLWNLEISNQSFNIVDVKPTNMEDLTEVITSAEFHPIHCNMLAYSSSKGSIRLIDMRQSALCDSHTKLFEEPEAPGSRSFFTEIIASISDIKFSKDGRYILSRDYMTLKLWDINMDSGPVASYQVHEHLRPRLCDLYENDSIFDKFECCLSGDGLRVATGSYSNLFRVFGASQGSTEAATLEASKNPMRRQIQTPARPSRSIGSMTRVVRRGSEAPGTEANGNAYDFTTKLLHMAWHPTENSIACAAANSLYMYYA

Experiment [3] concerns the target T3, PP2A regulatory subunit Bβ S460E (phospho-mimic), yeast two-hybrid fusion (Arabidopsis thaliana) (UniProt Q39247).
T3 sequence: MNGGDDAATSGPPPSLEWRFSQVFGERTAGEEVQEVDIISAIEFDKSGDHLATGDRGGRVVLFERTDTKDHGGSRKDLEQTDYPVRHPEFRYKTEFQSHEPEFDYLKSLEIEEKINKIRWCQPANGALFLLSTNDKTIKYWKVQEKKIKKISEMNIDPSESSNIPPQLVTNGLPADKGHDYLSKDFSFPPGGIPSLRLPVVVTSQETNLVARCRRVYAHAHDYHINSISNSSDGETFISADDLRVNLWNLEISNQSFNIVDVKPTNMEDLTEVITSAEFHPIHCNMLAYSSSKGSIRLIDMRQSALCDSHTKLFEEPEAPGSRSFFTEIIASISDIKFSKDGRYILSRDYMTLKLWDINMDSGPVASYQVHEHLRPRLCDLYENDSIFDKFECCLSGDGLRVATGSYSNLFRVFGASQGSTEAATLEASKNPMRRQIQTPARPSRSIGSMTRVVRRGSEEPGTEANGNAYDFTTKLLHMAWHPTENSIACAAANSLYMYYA

In experiment [4] the target is T4, PP2A regulatory subunit Bβ, yeast two-hybrid fusion (Arabidopsis thaliana) (UniProt Q39247).
T4 sequence: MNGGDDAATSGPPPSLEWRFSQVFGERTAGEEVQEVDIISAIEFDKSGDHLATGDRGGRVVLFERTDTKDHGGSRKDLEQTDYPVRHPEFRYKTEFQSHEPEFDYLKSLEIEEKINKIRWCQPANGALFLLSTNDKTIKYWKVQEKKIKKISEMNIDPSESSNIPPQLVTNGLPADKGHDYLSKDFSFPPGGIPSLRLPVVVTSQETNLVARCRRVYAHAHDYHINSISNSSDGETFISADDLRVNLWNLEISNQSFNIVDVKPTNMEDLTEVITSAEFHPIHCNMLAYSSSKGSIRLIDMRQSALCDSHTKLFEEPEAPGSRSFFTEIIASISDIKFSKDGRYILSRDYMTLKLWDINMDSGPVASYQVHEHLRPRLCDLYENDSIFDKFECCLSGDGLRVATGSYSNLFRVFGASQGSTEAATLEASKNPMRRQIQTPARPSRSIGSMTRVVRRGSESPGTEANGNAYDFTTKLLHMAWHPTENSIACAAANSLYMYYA

Experiment [5] addresses T1, PP2A scaffolding subunit A2, yeast two-hybrid fusion (Arabidopsis thaliana). The source holds these as a separate data set.
The target in experiment [6] is T4, PP2A regulatory subunit Bβ, yeast two-hybrid fusion (Arabidopsis thaliana). This is another data set of the same source.

Like-named read-outs stand apart in the source and are kept apart here. Results are given in words; binding and its absence hold for the method and conditions named. Some entries that bind do so weakly or less than the wild type. Where a sequence is shown, tags or fusion partners need not be part of it.

In the case of “PP2A catalytic subunit C4, yeast two-hybrid fusion (from UniProt P48578 1-313) (enzyme)”, the binding entry is on record as “binds” in experiment [1], “binds” in experiment [2], “no binding” in experiment [3] and “binds” in experiment [4].

B1: ETHYLENE … ROOT 1 (EIR1), yeast two-hybrid fusion (protein, UniProt Q9LU77 1-647)
chain: MITGKDMYDVLAAMVPLYVAMILAYGSVRWWGIFTPDQCSGINRFVAVFAVPLLSFHFISSNDPYAMNYHFLAADSLQKVVILAALFLWQAFSRRGSLEWMITLFSLSTLPNTLVMGIPLLRAMYGDFSGNLMVQIVVLQSIIWYTLMLFLFEFRGAKLLISEQFPETAGSITSFRVDSDVISLNGREPLQTDAEIGDDGKLHVVVRRSSAASSMISSFNKSHGGGLNSSMITPRASNLTGVEIYSVQSSREPTPRASSFNQTDFYAMFNASKAPSPRHGYTNSYGGAGAGPGGDVYSLQSSKGVTPRTSNFDEEVMKTAKKAGRGGRSMSGELYNNNSVPSYPPPNPMFTGSTSGASGVKKKESGGGGSGGGVGVGGQNKEMNMFVWSSSASPVSEANAKNAMTRGSSTDVSTDPKVSIPPHDNLATKAMQNLIENMSPGRKGHVEMDQDGNNGGKSPYMGKKGSDVEDGGPGPRKQQMPPASVMTRLILIMVWRKLIRNPNTYSSLFGLAWSLVSFKWNIKMPTIMSGSISILSDAGLGMAMFSLGLFMALQPKIIACGKSVAGFAMAVRFLTGPAVIAATSIAIGIRGDLLHIAIVQAALPQGIVPFVFAKEYNVHPDILSTAVIFGMLVALPVTVLYYVLLGL
Consider B1, for which the binding entry in experiment [5] is “binds”; in experiment [6], “no binding”.

These data come from doi:10.1101/2022.05.11.491551.
